This assay has as its target GST-fused FAK (in MEF cells) (UniProt Q05397). The assay is described as follows: pull-down; GST-FAK overexpressed in WT and IP6K1 KO MEF cells and pulled down, endogenous FAK detected.

Protein sequences, listed by entry. Tags and fused reporters are not part of them.
UniProt Q05397: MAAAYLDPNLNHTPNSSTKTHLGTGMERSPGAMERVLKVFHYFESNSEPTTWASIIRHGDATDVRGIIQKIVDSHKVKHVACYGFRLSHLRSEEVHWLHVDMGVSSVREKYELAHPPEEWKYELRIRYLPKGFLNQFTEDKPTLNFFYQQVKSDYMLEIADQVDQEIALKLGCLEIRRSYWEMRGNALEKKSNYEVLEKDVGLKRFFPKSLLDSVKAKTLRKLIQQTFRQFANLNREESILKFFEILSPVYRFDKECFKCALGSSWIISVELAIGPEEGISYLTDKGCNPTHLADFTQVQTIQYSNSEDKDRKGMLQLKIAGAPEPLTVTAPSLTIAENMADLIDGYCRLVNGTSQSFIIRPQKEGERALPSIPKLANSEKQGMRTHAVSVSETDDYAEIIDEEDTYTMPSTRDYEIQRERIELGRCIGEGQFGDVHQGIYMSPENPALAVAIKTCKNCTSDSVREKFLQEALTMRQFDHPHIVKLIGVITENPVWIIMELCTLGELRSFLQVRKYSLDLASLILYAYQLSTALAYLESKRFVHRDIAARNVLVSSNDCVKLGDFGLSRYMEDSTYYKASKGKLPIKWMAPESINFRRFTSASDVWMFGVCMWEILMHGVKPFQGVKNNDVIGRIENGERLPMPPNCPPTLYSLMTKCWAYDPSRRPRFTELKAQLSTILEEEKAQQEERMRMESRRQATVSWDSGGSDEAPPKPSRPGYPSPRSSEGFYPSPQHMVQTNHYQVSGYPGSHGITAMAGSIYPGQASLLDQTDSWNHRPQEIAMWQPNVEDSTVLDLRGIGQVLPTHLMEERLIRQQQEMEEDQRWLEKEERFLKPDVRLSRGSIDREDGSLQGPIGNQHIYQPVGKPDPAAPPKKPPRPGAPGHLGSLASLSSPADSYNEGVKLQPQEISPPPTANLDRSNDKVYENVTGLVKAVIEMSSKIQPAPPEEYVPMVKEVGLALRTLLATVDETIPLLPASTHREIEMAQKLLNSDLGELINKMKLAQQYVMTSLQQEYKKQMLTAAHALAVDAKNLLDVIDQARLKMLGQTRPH
UniProt P34152: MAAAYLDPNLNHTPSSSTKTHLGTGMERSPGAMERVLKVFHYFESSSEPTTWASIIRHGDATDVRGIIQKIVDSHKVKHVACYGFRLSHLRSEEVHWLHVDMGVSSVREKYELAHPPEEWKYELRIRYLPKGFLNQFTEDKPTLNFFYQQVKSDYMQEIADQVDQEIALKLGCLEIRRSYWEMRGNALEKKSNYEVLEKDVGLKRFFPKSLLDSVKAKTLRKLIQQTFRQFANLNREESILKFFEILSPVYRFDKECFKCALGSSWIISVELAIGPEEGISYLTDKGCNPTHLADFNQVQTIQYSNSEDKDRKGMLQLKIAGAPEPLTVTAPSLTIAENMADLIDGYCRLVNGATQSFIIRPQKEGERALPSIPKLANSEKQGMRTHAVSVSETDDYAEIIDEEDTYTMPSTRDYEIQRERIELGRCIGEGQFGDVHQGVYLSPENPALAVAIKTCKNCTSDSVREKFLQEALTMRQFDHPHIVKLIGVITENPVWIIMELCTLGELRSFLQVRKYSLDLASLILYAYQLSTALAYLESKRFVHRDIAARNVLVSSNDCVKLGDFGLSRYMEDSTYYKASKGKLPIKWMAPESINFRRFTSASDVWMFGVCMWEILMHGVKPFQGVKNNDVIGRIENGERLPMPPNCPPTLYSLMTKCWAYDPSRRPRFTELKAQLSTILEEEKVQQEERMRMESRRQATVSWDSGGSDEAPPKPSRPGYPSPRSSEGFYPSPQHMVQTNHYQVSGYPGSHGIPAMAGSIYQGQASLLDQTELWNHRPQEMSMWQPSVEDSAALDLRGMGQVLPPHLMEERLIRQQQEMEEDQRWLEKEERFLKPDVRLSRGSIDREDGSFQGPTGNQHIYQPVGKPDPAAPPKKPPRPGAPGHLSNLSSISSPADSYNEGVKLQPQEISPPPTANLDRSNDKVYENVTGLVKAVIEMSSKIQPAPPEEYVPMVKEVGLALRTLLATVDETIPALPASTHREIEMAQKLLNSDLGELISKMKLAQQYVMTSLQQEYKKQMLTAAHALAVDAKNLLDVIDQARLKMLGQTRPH

No constants are given. Whether binding was seen depends on the method and setting. Binding seen in cells or lysates may run through a third protein. Some binding calls cover weakened binding; strength is not graded here.

Regarding “endogenous FAK (MEF cells) (from UniProt P34152 1-1052) (enzyme)”, the binding entry is given as “binds”.

Values taken from PMC7614367, “Itraconazole inhibits endothelial cell migration by disrupting inositol pyrophosphate-dependent focal adhesion dynamics and cytoskeletal remodeling” (Biomedicine & Pharmacotherapy, 2023).
